{"source": "PubChem BioAssay AID504804 (Drosophila RNAi Screening Center, 2011)", "test": "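Fly genes whose loss lessens doxorubicin-driven cell death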 (primary screen)", "system": "Drosophila Kc cells", "reagents": "long dsRNA against Drosophila genes, 0.5 µg dsRNA per well", "timing": "96 h (48 h knock-down, then 48 h drug)", "challenge": "doxorubicin 5 µg/ml for 48 h, added 48 h after dsRNA", "detection": "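Viability measured as cellular ATP by luminescence after 48 h knock-down then 48 h doxorubicin at 5 µg/ml; unnormalised plate counts for each replicate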", "scale": "raw ATP luminescence: higher = more viable cells, protection from doxorubicin", "hit rule": "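Active when both duplicate wells lie at least 2 SD above the plate mean and protection is confirmed by rescreening and independent dsRNAs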", "note": "In all, the deposit lists about 19,000 reagents; below is a random part of those with a known target gene and a result. Over the whole deposit, 47 (0.25%) are marked active. 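Signals are raw, not normalised; exact z-scores behind calls not deposited; actives needed confirmation, so some wells reaching 2 SD are inactive.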 Entries without a mark were called inactive. Reagents against one gene are numbered here. Names joined by + are all predicted targets of the reagent."}
{"Gene": "Prosbeta7 (GeneID 40639)", "reagent no.": 1, "raw ATP luminescence, replicate 1": 41520, "raw ATP luminescence, replicate 2": 23437}
{"Gene": "CG12831 (GeneID 35631)", "reagent no.": 1, "raw ATP luminescence, replicate 1": 48373, "raw ATP luminescence, replicate 2": 60873}
{"Gene": "Atg10 + CG12822", "reagent no.": 1, "raw ATP luminescence, replicate 1": 20877, "raw ATP luminescence, replicate 2": 1.01e5}
{"Gene": "Brr2 (GeneID 39737)", "reagent no.": 1, "raw ATP luminescence, replicate 1": 30900, "raw ATP luminescence, replicate 2": 23003}
{"Gene": "CG3358 (GeneID 35604)", "reagent no.": 1, "raw ATP luminescence, replicate 1": 70743, "raw ATP luminescence, replicate 2": 59767}
{"Gene": "jing (GeneID 35555)", "reagent no.": 1, "raw ATP luminescence, replicate 1": 43493, "raw ATP luminescence, replicate 2": 54060}
{"Gene": "jing (GeneID 35555)", "reagent no.": 2, "raw ATP luminescence, replicate 1": 83080, "raw ATP luminescence, replicate 2": 74663}
{"Gene": "jing (GeneID 35555)", "reagent no.": 3, "raw ATP luminescence, replicate 1": 59900, "raw ATP luminescence, replicate 2": 83867}
{"Gene": "CG33673 (GeneID 3772423)", "reagent no.": 1, "raw ATP luminescence, replicate 1": 3.09e5, "raw ATP luminescence, replicate 2": 3.16e5}
{"Gene": "Dsp1 (GeneID 117294)", "reagent no.": 1, "raw ATP luminescence, replicate 1": 33430, "raw ATP luminescence, replicate 2": 36790}
{"Gene": "grp + CG31782 (retired record)", "reagent no.": 1, "raw ATP luminescence, replicate 1": 91457, "raw ATP luminescence, replicate 2": 58200}
{"Gene": "Idgf6 (GeneID 36868)", "reagent no.": 1, "raw ATP luminescence, replicate 1": 57157, "raw ATP luminescence, replicate 2": 69233}
{"Gene": "Cyp4g15 (GeneID 32093)", "reagent no.": 1, "raw ATP luminescence, replicate 1": 3.07e5, "raw ATP luminescence, replicate 2": 2.87e5}
{"Gene": "Bap170 (GeneID 35560)", "reagent no.": 1, "raw ATP luminescence, replicate 1": 65913, "raw ATP luminescence, replicate 2": 55247}
{"Gene": "Droj2 (GeneID 41646)", "reagent no.": 1, "raw ATP luminescence, replicate 1": 40190, "raw ATP luminescence, replicate 2": 22313}
{"Gene": "CG31642 (GeneID 326149)", "reagent no.": 1, "raw ATP luminescence, replicate 1": 1.09e5, "raw ATP luminescence, replicate 2": 1.04e5}
{"Gene": "Aptx (GeneID 42322)", "reagent no.": 1, "raw ATP luminescence, replicate 1": 56190, "raw ATP luminescence, replicate 2": 67280}
{"Gene": "CG5800 (GeneID 32742)", "reagent no.": 1, "raw ATP luminescence, replicate 1": 2.00e5, "raw ATP luminescence, replicate 2": 1.73e5}
{"Gene": "GstD1 (GeneID 41503)", "reagent no.": 1, "raw ATP luminescence, replicate 1": 65380, "raw ATP luminescence, replicate 2": 52743}
{"Gene": "DNAlig3 (GeneID 41518)", "reagent no.": 1, "raw ATP luminescence, replicate 1": 64450, "raw ATP luminescence, replicate 2": 57627}

Records above whose target name begins with B or b (2):
{"Gene": "Brr2 (GeneID 39737)", "reagent no.": 1, "raw ATP luminescence, replicate 1": 30900, "raw ATP luminescence, replicate 2": 23003}
{"Gene": "Bap170 (GeneID 35560)", "reagent no.": 1, "raw ATP luminescence, replicate 1": 65913, "raw ATP luminescence, replicate 2": 55247}

Continued:
{"Gene": "ppk16 (GeneID 3885612)", "reagent no.": 1, "raw ATP luminescence, replicate 1": 35520, "raw ATP luminescence, replicate 2": 74427}
{"Gene": "CG8138 (GeneID 41619)", "reagent no.": 1, "raw ATP luminescence, replicate 1": 88970, "raw ATP luminescence, replicate 2": 70440}
{"Gene": "IntS9 (GeneID 39763)", "reagent no.": 1, "raw ATP luminescence, replicate 1": 19393, "raw ATP luminescence, replicate 2": 31240}
{"Gene": "dikar (GeneID 38747)", "reagent no.": 1, "raw ATP luminescence, replicate 1": 37740, "raw ATP luminescence, replicate 2": 34303}
{"Gene": "CG31373 (GeneID 318700)", "reagent no.": 1, "raw ATP luminescence, replicate 1": 51960, "raw ATP luminescence, replicate 2": 56177}
{"Gene": "CG31636 (GeneID 318865)", "reagent no.": 1, "raw ATP luminescence, replicate 1": 29170, "raw ATP luminescence, replicate 2": 25163}
{"Gene": "CG10466 (GeneID 35268)", "reagent no.": 1, "raw ATP luminescence, replicate 1": 28823, "raw ATP luminescence, replicate 2": 25703}
{"Gene": "CG44325 (GeneID 31831)", "reagent no.": 1, "raw ATP luminescence, replicate 1": 35530, "raw ATP luminescence, replicate 2": 33480}
{"Gene": "CG2961 (GeneID 31954)", "reagent no.": 1, "raw ATP luminescence, replicate 1": 3.34e5, "raw ATP luminescence, replicate 2": 2.98e5}
{"Gene": "nuf (GeneID 39572)", "reagent no.": 1, "raw ATP luminescence, replicate 1": 70087, "raw ATP luminescence, replicate 2": 50433}
{"Gene": "CG17002 (GeneID 35610)", "reagent no.": 1, "raw ATP luminescence, replicate 1": 71330, "raw ATP luminescence, replicate 2": 73703}
{"Gene": "CG8435 (GeneID 36789)", "reagent no.": 1, "raw ATP luminescence, replicate 1": 53803, "raw ATP luminescence, replicate 2": 62493}
{"Gene": "CG3652 (GeneID 33643)", "reagent no.": 1, "raw ATP luminescence, replicate 1": 28780, "raw ATP luminescence, replicate 2": 27663}
{"Gene": "CG32106 (GeneID 317855)", "reagent no.": 1, "raw ATP luminescence, replicate 1": 80720, "raw ATP luminescence, replicate 2": 79330}
{"Gene": "CG42394 + CG6567", "reagent no.": 1, "raw ATP luminescence, replicate 1": 27277, "raw ATP luminescence, replicate 2": 69147}
{"Gene": "Pabp2 (GeneID 35788)", "reagent no.": 1, "raw ATP luminescence, replicate 1": 24060, "raw ATP luminescence, replicate 2": 41190}
